The values that follow come from the RepoRT retention time repository (doi:10.1038/s41586-021-03707-9).

This data set in a line: Waters ACQUITY UPLC BEH C18, 100 × 2.1 mm, 1.7 µm, 40 °C, 0.28 mL/min, estimated dead time 0.63 min; A: water + 6.5 mM ammonium hydroxide; B: methanol + 6.5 mM ammonium hydroxide; gradient (min/%B) 0/0.5 4/70 4.5/98 5.4/98. The note with it: stereoisomer not certain.

For the compound `O=C(O)C(=O)Cc1ccc(O)cc1`, the LC retention time was 1.31 min.
